In US20240217988A1, “ESTROGEN RECEPTOR ANTAGONIST” (Shenzhen Forward Pharmaceuticals Co., Limited, priority 2021, published 2024):

Test system: Human breast cancer cells MCF-7
Test: MCF-7 cell proliferation experiment
Format: cell-based
Settings: MCF7, MCF-7 cells, 72 hours, Cell Titer-Glo
Procedure: Test Example 2: MCF-7 Cell Proliferation Experiment
Human breast cancer cells MCF-7 (HTB-22, purchased from ATCC) were inoculated into a 96-well plate. The culture medium was an MEM (Hyclone, SH30024.01B) culture medium containing 10% of FBS (Gibco, 10099-141), 1% of pyruvic acid (Sigma, S8636), and 1% of nonessential amino acid (Sigma, M7145), and the inoculation density was 4,000 cells/well. The cells were cultured at 37° C., 5% CO2. The compound was prepared into a 20 mM stock solution, which was subjected to gradient dilution to a final concentration of […] with 100% DMSO (Sigma, D2650) and then diluted 20 folds with a culture medium containing 2% of FBS. After 24 hours of culture, the culture medium was removed, 90 μL of a culture medium containing 2% of FBS and 10 μL of drug were added to each well, while 10 μL of DMSO was added to the control group, and they were gently shaken and mixed. The blank group only contained 100 μL of 2% FBS culture medium. They were placed in an incubator and cultured at 37° C., 5% CO2. After 72 hours, 50 μL of mixed Cell Titer-Glo (Promega, G7571) was added. They were shaken and mixed uniformly, and placed at room temperature for 10 min. The chemiluminescence signal value was determined. The negative control was 0.5% DMSO well.

CC/C(=C(\c1ccccc1)c1ccc(OCCN(C)C)cc1)c1ccccc1 [Tamoxifen, reference compound]
IC50: 274 nM
